Library screening results

By UniProt entry, the sequences of proteins in these tests, tags left out.
UniProt E9BF75, entry or part of it: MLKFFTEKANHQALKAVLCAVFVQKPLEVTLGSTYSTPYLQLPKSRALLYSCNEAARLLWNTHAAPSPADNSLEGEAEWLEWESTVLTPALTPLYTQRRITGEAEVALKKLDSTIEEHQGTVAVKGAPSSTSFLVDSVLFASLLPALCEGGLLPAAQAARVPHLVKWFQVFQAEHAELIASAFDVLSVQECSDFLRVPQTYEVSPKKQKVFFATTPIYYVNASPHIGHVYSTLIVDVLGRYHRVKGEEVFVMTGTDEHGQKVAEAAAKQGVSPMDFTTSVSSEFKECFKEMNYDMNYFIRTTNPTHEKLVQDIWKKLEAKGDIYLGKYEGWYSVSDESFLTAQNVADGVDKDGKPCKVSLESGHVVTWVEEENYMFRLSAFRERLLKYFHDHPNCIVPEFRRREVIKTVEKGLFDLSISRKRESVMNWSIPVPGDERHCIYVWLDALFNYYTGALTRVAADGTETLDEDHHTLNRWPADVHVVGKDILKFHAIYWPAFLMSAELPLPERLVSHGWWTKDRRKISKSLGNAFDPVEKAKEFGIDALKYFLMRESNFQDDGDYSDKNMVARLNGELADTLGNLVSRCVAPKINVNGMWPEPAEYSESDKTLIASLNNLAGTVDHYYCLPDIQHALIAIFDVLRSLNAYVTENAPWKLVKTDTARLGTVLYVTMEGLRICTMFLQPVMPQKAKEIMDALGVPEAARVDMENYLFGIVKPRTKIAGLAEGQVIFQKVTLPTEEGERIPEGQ

From ChEMBL document CHEMBL3988442, “University of Dundee, Small-Polar-MMV Screening Library” (2021).

Mtb heat-shock: 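Assay on Mycobacterium tuberculosis, filed only as a heat shock assay from Cornell; the read-out is not stated. The concentration is filed as 10 mM, unlikely as a test dose, so the dose is not known. Higher reads as stronger inhibition (inferred: compounds with an IC50 in retests scored well above the rest). Size under these conditions: about 69,000 compounds, about 930 of them at 50% or above in at least one test.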
Mtb growth Cornell: 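Whole-cell assay for inhibitors of Mycobacterium tuberculosis growth, labelled Cornell in the record; the read-out is not stated. The concentration is filed as 10 mM, unlikely as a test dose, so the dose is not known. Higher means stronger inhibition (inferred from two other growth screens of the library). Size under these conditions: about 53,000 compounds, about 900 of them at 50% or above in at least one test.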
LdMetRS: 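Primary screen of methionyl-tRNA synthetase; the read-out is not stated. Target: Methionyl-tRNA synthetase (putative), Leishmania donovani (UniProt E9BF75). The test concentration is not given. The values are filed as inhibition. Of about 68,000 compounds tested this way, about 24 (0.035%) reached 50% or more in at least one test.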

All values are in %. The record does not define 0% and 100%; most values in the screen are far below 50% and negative numbers occur (in some assays of this library far below -100). This is an unselected part of the compounds tested. A dash means the value is not listed here; it may have been measured.

{"compound": "N#Cc1ccc(F)c(CN2CCCC2Cn2cccn2)c1", "stereo": "configuration not stated", "Mtb heat-shock": 15.55, "Mtb growth Cornell": 9.849, "LdMetRS": 5.397}
{"compound": "Cc1nnc(CN(Cc2ccccc2Cl)C2CCCC2)o1", "Mtb heat-shock": -14, "Mtb growth Cornell": 21.61, "LdMetRS": -1.319}
{"compound": "CCc1nnsc1C(=O)NCC1CN(CC(C)C)CCO1", "stereo": "configuration not stated", "Mtb heat-shock": -12.52, "LdMetRS": 5.842}
{"compound": "c1cnc(-c2nc(CN3CCCC(N4CCCC4)C3)cs2)nc1", "stereo": "configuration not stated", "Mtb heat-shock": -5.544, "LdMetRS": 11.75}
{"compound": "Cc1cc(C)nc(Nc2cc(C)nc(C3CCN(C(C)C)C3)n2)n1", "stereo": "configuration not stated", "Mtb heat-shock": 2.107, "Mtb growth Cornell": -1.558, "LdMetRS": 5.28}
{"compound": "Cc1cc(C)c(-n2cccn2)c(CN2CCOCC(CN(C)C)C2)c1", "stereo": "configuration not stated", "Mtb heat-shock": 15.22, "Mtb growth Cornell": 25.08, "LdMetRS": 14.89}
{"compound": "COc1c(F)cc(CN2CCCC3(CC2)CNC(=O)O3)cc1Cl", "stereo": "configuration not stated", "Mtb heat-shock": 15.54, "Mtb growth Cornell": -39.21, "LdMetRS": 6.407}
{"compound": "CS(=O)(=O)N1C[C@@H]2CC[C@H](C1)N(Cc1ccsc1)C2", "LdMetRS": 6.265}
{"compound": "CCCc1ccc(C(C)Nc2ncnc3c2CCNC3)cc1", "stereo": "configuration not stated", "Mtb heat-shock": 25.04, "Mtb growth Cornell": 32.1, "LdMetRS": 24.63}
{"compound": "CS(=O)(=O)N[C@@H]1CN(Cc2ccoc2)C[C@@H]2CCCO[C@@H]21", "LdMetRS": 12.59}
{"compound": "Cc1ccc(Cl)cc1NS(=O)(=O)c1cc(C(N)=O)n(C)c1", "Mtb heat-shock": 2.954, "Mtb growth Cornell": -44.06, "LdMetRS": 16.31}
{"compound": "CC(NCCN1CCC(N(C)C)CC1)c1ccc(Cl)s1", "stereo": "configuration not stated", "Mtb heat-shock": -9.224, "Mtb growth Cornell": -10.16, "LdMetRS": 8.967}
{"compound": "Cn1cc(CC2CCN(C(=O)NCc3cn4ccsc4n3)C2)cn1", "stereo": "configuration not stated", "Mtb heat-shock": 1.621, "Mtb growth Cornell": -12.82, "LdMetRS": 12.68}
{"compound": "CC(C)c1nnc2n1CCN(CC(=O)Nc1nncs1)C2", "Mtb heat-shock": -6.695, "LdMetRS": 20.14}
{"compound": "O=C(O)C(F)(F)F.[H][C@@]12CN(CC3CC3)CC[C@]1([H])CN(c1cnccn1)C2", "Mtb heat-shock": -2.556, "Mtb growth Cornell": -14.2}
{"compound": "Fc1cccc(Oc2nccnc2C2CCN(C3CCOCC3)CC2)c1", "Mtb heat-shock": -13.14, "Mtb growth Cornell": -4.576, "LdMetRS": 7.447}
{"compound": "CCN1CC(=O)NCC12CCN(C(=O)c1ccno1)C2", "stereo": "configuration not stated", "LdMetRS": 6.111}
{"compound": "COCC(=O)N1CC[C@@H]2O[C@H](COCc3ccncc3)CC[C@@H]21", "LdMetRS": 18.52}
{"compound": "CSCC(=O)N1CCc2c(cnc(C)c2-c2noc(-c3ccco3)n2)C1", "Mtb heat-shock": 2.842, "LdMetRS": 11.17}
{"compound": "CC(C)CNc1nc2c(cc1C(=O)NCC1CC1)CCNCC2", "Mtb heat-shock": 45.75, "Mtb growth Cornell": -63.26, "LdMetRS": -8.602}
{"compound": "CCOc1ccc(OC2CCCN(c3cnn(C)c3)C2=O)cc1", "stereo": "configuration not stated", "Mtb heat-shock": -4.564, "Mtb growth Cornell": -32.87, "LdMetRS": 6.87}
{"compound": "CN(C)C(=O)c1cccc(Nc2cnn(C)c2)c1", "Mtb heat-shock": 6.032, "Mtb growth Cornell": -40.31, "LdMetRS": 16.36}
{"compound": "O=C(Cn1ccc(C(=O)O)n1)Nc1c(Cl)cccc1Cl", "Mtb heat-shock": -6.43, "LdMetRS": 6.281}
{"compound": "CC1=NN(c2ccc(C(=O)N3CCCC(n4ccnc4)C3)cc2)CC1", "stereo": "configuration not stated", "Mtb heat-shock": 6.011, "Mtb growth Cornell": -16.82, "LdMetRS": 0.4695}
{"compound": "O=C(CNCC1CCCN1c1cccnn1)NCCc1cccs1", "stereo": "configuration not stated", "Mtb heat-shock": 9.459, "Mtb growth Cornell": 9.58, "LdMetRS": 12.05}
{"compound": "CC(=O)c1cc(CC(=O)NCc2ccc(CN(C)C)cc2)cs1", "Mtb heat-shock": -6.258, "LdMetRS": 10.51}
{"compound": "COc1cccc(CNC(=O)N2CCN3CCNC(=O)C3C2)c1", "stereo": "configuration not stated", "Mtb heat-shock": 10.48, "Mtb growth Cornell": -22.97, "LdMetRS": 10.13}
{"compound": "CCOc1ccc(Br)cc1C1CCCN1", "stereo": "configuration not stated", "LdMetRS": 0}
{"compound": "Cc1[nH]ncc1C(=O)N1CCOC(c2cccs2)C1", "stereo": "configuration not stated", "Mtb heat-shock": -19.22, "Mtb growth Cornell": -25.63, "LdMetRS": 4.545}

2 of the entries, repeated:

| Compound | Mtb heat-shock | Mtb growth Cornell | LdMetRS |
|---|---|---|---|
| `CN(C)C(=O)c1cccc(Nc2cnn(C)c2)c1` | 6.032 | -40.31 | 16.36 |
| `COCC(=O)N1CC[C@@H]2O[C@H](COCc3ccncc3)CC[C@@H]21` | - | - | 18.52 |